Values from PubChem BioAssay AID504793 (Drosophila RNAi Screening Center, 2011)
In all, the deposit lists about 23,000 reagents; below is an unselected part of those with a known target gene and a result. Of all reagents, 62 (0.27%) got an active call. 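Calls come from follow-up tests whose scores are not deposited, so confirmed genes may have low counts here; counts are not normalised per plate.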 The raw values are shown without normalisation. A plus sign joins genes that one reagent is predicted to hit.

Test: 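Genes required for cells to halt at G2/M after double-strand DNA breaks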 (primary screen)
Cells: Drosophila S2R+ cells
Reagent: long dsRNA against Drosophila genes, about 0.25 µg dsRNA per well
Duration: 4 days of dsRNA, then 4 hours of drug before read-out
Challenge: doxorubicin 0.5 µM for 4 hours to cause double-strand breaks, in cells also given a low, harmless dose of dsRNA against nbs to sensitise the assay
Measured: 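Per-well count of mitotic cells stained for phospho-histone H3 after doxorubicin exposure, used as mitotic index; counts are raw and not normalised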
Direction: mitotic cells: higher = more cells in mitosis, weaker G2 arrest
Active means: 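a call needs confirmation in secondary tests, with other dsRNAs and a check of mitotic timing without damage, not just a high primary count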
Calls: active = confirmed in follow-up tests; inactive = not confirmed

no.	gene	DRSC id	mitotic cells, replicate 1	mitotic cells, replicate 2	outcome
1	spag4	DRSC02973	9		inactive
2	CG8617	DRSC07223	6		inactive
3	CG4073	DRSC15542	3		inactive
4	CG11141	DRSC06048	6		inactive
5	CG8613	DRSC07222	11		inactive
6	CG8613	DRSC28364	7		inactive
7	slam	DRSC03240	4		inactive
8	spirit	DRSC18202	15		inactive
9	spirit	DRSC25748	2		inactive
10	CG6660	DRSC16087	8		inactive
11	MFS3	DRSC00664	5		inactive
12	MFS3	DRSC28601	9		inactive
13	Fas2	DRSC17308	8		inactive
14	Fas2	DRSC17309	10		inactive
15	Fas2	DRSC18664	12		inactive
16	CG12715	DRSC19492	13		inactive
17	CG2202	DRSC19841	8		inactive
18	CG2202	DRSC23452	3		inactive
19	CG16719	DRSC10222	4		inactive
20	CG34355	DRSC13639	14		inactive
21	CG34355	DRSC14520	7		inactive
22	CG34355	DRSC14668	12		inactive
23	CG34355	DRSC21687	9		inactive
24	CG31875	DRSC21975	10		inactive
25	Gapdh1	DRSC07433	13		inactive
26	Gapdh1	DRSC25746	9		inactive
27	CG31741	DRSC02887	5		inactive
28	dbo	DRSC11339	8		inactive
29	orb2	DRSC10540	9		inactive
30	orb2	DRSC10541	11		inactive
31	orb2	DRSC10542	4		inactive
32	orb2	DRSC25697	8		inactive
33	CG6012	DRSC02921	5		inactive
34	Cpr76Ba	DRSC11060	3		inactive
35	Cpr76Ba	DRSC27858	6		inactive
36	Lam	DRSC03359	8		inactive
37	Lam	DRSC28152	3		inactive
38	CG44836	DRSC09915	1		inactive
39	CG44836	DRSC26572	9		inactive
40	CG8483	DRSC16430	3		inactive
41	CG10395	DRSC04840	8		inactive
42	CG10395	DRSC26811	1		inactive
43	CG12842 (retired record)	DRSC06188	10		inactive
44	CG12842 (retired record)	DRSC24909	4		inactive
45	tra2	DRSC07708	8		inactive
46	tra2	DRSC29704	3		inactive
47	CG1468	DRSC17946	7		inactive
48	CG1468	DRSC25538	8		inactive
49	Tace	DRSC16340	14		inactive
50	Spn55B	DRSC07694	4		inactive
51	Spn55B	DRSC21862	6		inactive
52	Spn55B	DRSC27961	6		inactive
53	endos	DRSC10658	25		inactive
54	endos	DRSC29476	35		inactive
55	CG12708 + CG15646	DRSC23549	4		inactive
56	CG5767	DRSC06953	2		inactive
57	CG5767	DRSC29980	12		inactive
58	nkt	DRSC10144	4		inactive
59	CG34370	DRSC03913	9		inactive
60	CG34370	DRSC04142	6		inactive
61	CG34370	DRSC04143	4		inactive
62	CG34370	DRSC04144			inactive
63	CG34370	DRSC26263	10		inactive
64	Dbct	DRSC19951	6		inactive
65	Dbct	DRSC25764	5		inactive
66	CG4892	DRSC01937	4		inactive
67	CG17724	DRSC06687	9		inactive
68	CG17724	DRSC27618	10		inactive
69	CG31029	DRSC15422	5		inactive
70	CG31029	DRSC29559	7		inactive
71	CG42258	DRSC19741	8		inactive
72	CG42258	DRSC23161	14		inactive
73	CG42258	DRSC27710	9		inactive
74	CG42258	DRSC28451	3		inactive
75	Orc5	DRSC03390	3		inactive
76	Orc5	DRSC28207	8		inactive
77	CG32052	DRSC10966	5		inactive
78	CG32052	DRSC27465	4		inactive
79	Cyp309a1	DRSC00747	6		inactive
80	CtsL3	DRSC12171	7		inactive
81	CtsL3	DRSC27036	15		inactive
82	CG17819	DRSC15279	12		inactive
83	CG11034	DRSC02121	7		inactive
84	CG11034	DRSC02122	3		inactive
85	CG9672	DRSC20201	9		inactive
86	CG14052	DRSC17907	8		inactive
87	CG14052	DRSC18192	9		inactive
88	CG14052	DRSC25215	4		inactive
89	CG15406	DRSC00420	3		inactive
90	CG15406	DRSC28108	7		inactive
91	Urm1	DRSC22941	6		inactive
92	Urm1	DRSC29463	4		inactive
93	CG42365	DRSC04266	7		inactive
94	CG32213 + CG12519 + 825-Oak + 1 more	DRSC09615	4	20	inactive
95	CG11999	DRSC12185	5		inactive
96	CG3817	DRSC15515	8		inactive
97	CG3817	DRSC27548	8		inactive
98	Ctf4	DRSC06380	7		inactive
99	snRNA:U1:95Cc + snRNA:U1:95Cb	DRSC13641	10		inactive
100	Pgant35A	DRSC03557	4	5	inactive
101	Pgant35A	DRSC28249	3		inactive
102	r-l	DRSC17042	24		inactive
103	r-l	DRSC22784	14		inactive
104	CG9394	DRSC04550	3		inactive
105	CG6294 + CG6299 + CG15642	DRSC19981	14		inactive
106	CG12491 + CG34105	DRSC04008	5		inactive
107	CG12491 + CG34105	DRSC04124	7		inactive
108	CG12491 + CG34105	DRSC26465	8		inactive
109	CG2574	DRSC19862	14		inactive
110	CG32037	DRSC10363	2		inactive
